These are yes or no findings as the source states them, for the method shown. Some entries that bind do so weakly or less than the wild type.
Key:
[1] = target: Recombinant rat sclerostin (rat) (UniProt Q99P67); assay: SPR (Biacore T200), 37 C, dissociation at pH 5.8 after pH 7.4; legend: # refers to slow dissociation, koff at pH 5.8 cannot be determined
[2] = target: Recombinant rat sclerostin (rat) (UniProt Q99P67); assay: SPR (Biacore T200), 37 C, pH 5.8; legend: n.d. refers to weak binding, KD cannot be determined

Sequences of proteins named here, by UniProt entry; tags and fusion partners are left off. A change or cut given only in a name is not applied to a line headed by its entry.
UniProt Q99P67: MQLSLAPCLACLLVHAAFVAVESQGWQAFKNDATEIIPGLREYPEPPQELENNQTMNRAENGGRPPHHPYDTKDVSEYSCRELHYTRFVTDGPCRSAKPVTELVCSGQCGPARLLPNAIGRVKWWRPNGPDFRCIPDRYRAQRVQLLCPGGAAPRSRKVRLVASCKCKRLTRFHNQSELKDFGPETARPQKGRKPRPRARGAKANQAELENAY

Row | Binder | binding [1] | binding [2]
1 | mabA (antibody, V domains shown) VH: EVQLVQSGAEVKKPGASVKVSCKASGYTFTDYNMHWVRQAPGQGLEWMGEINPNSGGAGYNQKFKGRVTMTTDTSTSTAYMELRSLRSDDTAVYYCARLGYDDIYDDWYFDVWGQGTTVTVSS VL: DIQMTQSPSSLSASVGDRVTITCRASQDISNYLNWYQQKPGKAPKLLIYYTSRLLSGVPSRFSGSGSGTDFTLTISSLQPEDFATYYCQQGDTLPYTFGGGTKVEIK | binds | 
2 | mabA_NpH2 (antibody, V domains shown) VH: EVQLVQSGAEVKKPGASVKVSCKASGYTFTDYNMHWVRQAPGQGLEWMGEINPNSGGAGYNQKFKGRVTMTTDTSTSTAYMELRSLRSDDTAVYYCARLGYDDIYDDWYFDVWGQGTTVTVSS VL: DIQMTQSPSSLSASVGDRVTITCRASQDISNYLNWYQQKPGKAPKLLIYHTSRLLSGVPSRFSGSGSGTDFTLTISSLQPEDFATYYCQQGDTLPYTFGGGTKVEIK | binds | 
3 | mabA_pH3 (antibody, V domains shown) VH: EVQLVQSGAEVKKPGASVKVSCKASGYTFTDYNMHWVRQAPGQGLEWMGEINPHSGHAGYNQKFKGRVTMTTDTSTSTAYMELRSLRSDDTAVYYCARLHYDDIHDDWYFDVWGQGTTVTVSS VL: DIQMTQSPSSLSASVGDRVTITCRASHDISNYLNWYQQKPGKAPKLLIYYTSRLLSGVPSRFSGSGSGTDFTLTISSLQPEDFATYYCQQGDTLPYTFGGGTKVEIK |  | binds
4 | mabA_NpH3 (antibody, V domains shown) VH: EVQLVQSGAEVKKPGASVKVSCKASGYTFTDYNMHWVRQAPGQGLEWMGEINPNSGGAGYNQKFKGRVTMTTDTSTSTAYMELRSLRSDDTAVYYCARLGYDDIYDDWYFDVWGQGTTVTVSS VL: DIQMTQSPSSLSASVGDRVTITCRASQDISNYLNWYQQKPGKAPKLLIYYHSRLLSGVPSRFSGSGSGTDFTLTISSLQPEDFATYYCHQGDTLPYTFGGGTKVEIK | binds | 

— patent US20190352387A1
